Library screen at single concentrations

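Growth of Mycobacterium tuberculosis over 4 days (cholesterol / DPPC medium with tyloxapol); the read-out is not stated. Compounds at 500 µM. Direction is inferred from retests: higher values go with more growth inhibition. Size under these conditions: about 18,000 compounds, about 900 of them at 50% or above in at least one test.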

Each number is a percent effect as filed. How 0% and 100% were set is not recorded. Most values in the screen are low, and negative values occur. This is an unselected part of the compounds tested.

structure	percent effect
COCC(=O)NCCNS(=O)(=O)Cc1ccccc1	-4.014
CC(C)NC(=O)N(Cc1cccnc1)C(C)C	11.33
CN1CCC(NCc2ccc3c(c2)OCO3)CC1	8.165
CCc1cnc(CNC)s1	-9.604
Nc1cc(-c2cccnc2)on1	17.63
NCCn1cc(Br)ccc1=O	3.574
c1ccc(CNC2CCNCC2)cc1	22.02
CC(CNC(=O)c1ccncc1)c1ccccc1 (stereo unspecified)	36.26
CCC1CCCCN1CCC(=O)NC(N)=O (stereo unspecified)	-8.569
OCCOc1cccc(C(F)(F)F)n1	21.4
c1coc(C2CCCCN2)c1 (stereo unspecified)	-1.393
CN(C)C(=O)c1cc(Br)c2c(c1)OCCO2	10.99
NCc1ccc(N2CCCS2(=O)=O)c(F)c1	-22.24
COCc1noc(CCNC(=O)c2cccn2C)n1	-0.264
CCCC(N)c1nnc2ccccn12 (stereo unspecified)	2.143
CC(C)(C#N)c1ccc(-c2cc(C(N)=O)ccn2)cc1	44.4
O=C1CCC(=O)c2ccccc2N1	-2.261
NC(=O)c1ccc(CNC(=O)CCc2ccccc2)o1	6.684
CCS(=O)(=O)N1CC(C(=O)NC)Oc2ccccc21 (stereo unspecified)	-17.93
C=C(C)CNC(=O)Nc1cnn(CCN(C)C)c1	-0.4677
CC(C)Oc1ccc(S(=O)(=O)N2CCC(N)C2)cc1 (stereo unspecified)	23.75
CC(C)(N)CNS(=O)(=O)c1cccc(Br)c1	20.75
Cc1c(C(=O)NCc2ccc(Cl)s2)cnn1C	33.86
O=C(CC1(O)CCCCC1)NCc1ncccc1F	42.38
CC(C)c1nnc2ccc(Cl)nn12	8.871
CC(C)(C)c1noc(CN2CCC(O)CC2)n1	-4.898
CCS(=O)(=O)CCNC(=O)c1cccc(CN(C)C)c1	-6.95
NC(=O)NC(=O)CCn1cc(-c2ccccc2)cn1	-8.468
CC(C)n1cnnc1CN1CCN(c2nc[nH]n2)CC1	-16.42
O=C(Cn1c(=O)[nH]c(=O)c2ccccc21)NC1CC1	-14.93
CC1CC(C)(C)NC1=O (stereo unspecified)	-2.183
Cn1nccc1[C@H]1[C@H](N)CC(=O)N1C1CC1	11.78
COc1ccc(CN)nc1	5.946
COCCCN1CCC(Nc2ccc(Cl)cn2)CC1	5.566
Cc1cc(C(N)=O)ccc1I	34.36
CC(C)CC1NCCCNC1=O (stereo unspecified)	4.308
CC(C)Nc1ccc(F)cc1OCCO	-5.43
NCc1cc(F)c(N2CCOCC2)c(F)c1	32.67
O=C1C=CC(=O)N1C1CCCCC1	5.419
NS(=O)(=O)CC1CCCCN1 (stereo unspecified)	-1.365
COc1ccc(SCC(=O)NC2CCN(C)CC2)cc1	14.2
COCC1(C(=O)N2CCC[C@@H]2C(N)=O)CCC1	26.3
CCOC1CC(CN)(N2CCOCC2)C1 (stereo unspecified)	-8.269
CC(=O)NCc1ccc(C(C)=O)s1	-1.406
CC(C)n1ncc(C(=O)N=c2cc[nH]n2C(C)C)c1N	8.271
CC(C)(C)C(=O)Nc1ccc(-n2cnnn2)cc1	8.807
CN(Cc1ccsc1)S(=O)(=O)c1ccc(C(N)=O)cc1	13.6
OCCC1(NCc2ccc3c(c2)CCO3)CCOCC1	0.4494
CO[C@@H]1CN[C@@H](c2nc(C3CC3)no2)C1	1.155
Cc1cc(F)ccc1C(=O)N1C[C@H](C2CC2)[C@@H](N)C1	14.64
NC1(CO)CCc2ccccc21 (stereo unspecified)	11.67
NCc1cnc2ccccc2c1	0.9473
CCNC(=O)[C@@H]1C[C@H](N)CN1C(=O)C1(COC)CCC1	5.177
CNc1ccc(C(=O)NC(C)Cn2cccn2)cn1 (stereo unspecified)	-1.46
CC(C)N1CCC(NC(=O)C(C)(C)C)CC1	9.409
CC(NC(=O)NCCn1ccnc1)c1ccccn1 (stereo unspecified)	-3.412
Oc1ccc2ccccc2c1CNn1cnnc1	8.668
COC(=O)c1ccc(S(=O)(=O)N2CCOCC2)cc1	-14.43
NCC1CCN(c2cnn(CC3CCC3)c(=O)c2)CC1	6.959
CNc1cc(C(=O)N2CCC[C@@H]2COC)ccn1	0.4278
Cn1cc(C(=O)NC2CCN(CCC(N)=O)CC2)cn1	5.321
COCCN1CCCN(C(=O)c2csc(Br)c2)CC1	13.14
NC(=O)NCC1CCCN1 (stereo unspecified)	22.36
c1ccc(N2CCC(N3CCCC3)CC2)nc1	4.37
O=C(CNC1(CO)CCOCC1)Nc1cccc(F)c1	-1.317
CCC(C)(O)CNC(=O)CCOC(C)C (stereo unspecified)	1.967
CCn1cc(C2CSCCN2)cn1 (stereo unspecified)	-0.1672
Cc1nn(CCC(=O)N[C@H]2C[C@@H]3OCC[C@H]23)c(C)c1C	-4.639
COCCNC(=O)COc1cc(Cl)ccc1C(=O)OC	-4.261
CN(Cc1ccco1)S(=O)(=O)c1cnn(C)c1	17.18
Cc1ccccc1C(=O)NC1CCN(CCCO)CC1	-16.75
CCCN1CCC(NC2CCC3(CC2)OCCO3)CC1	-18.57
CC(N)(CO)C1CCCCC1 (stereo unspecified)	5.183
CNC(CO)C(C)(C)C (stereo unspecified)	-7.664
NC(c1ccccc1)c1c[nH]cn1 (stereo unspecified)	11.79

The values are deposited in ChEMBL (CHEMBL3988442, “University of Dundee, Small-Polar-MMV Screening Library” (2021)).